Primary screen of a compound library

The chains behind the UniProt entries cited, without tags or fusion partners.
UniProt E9BF75, entry or part of it: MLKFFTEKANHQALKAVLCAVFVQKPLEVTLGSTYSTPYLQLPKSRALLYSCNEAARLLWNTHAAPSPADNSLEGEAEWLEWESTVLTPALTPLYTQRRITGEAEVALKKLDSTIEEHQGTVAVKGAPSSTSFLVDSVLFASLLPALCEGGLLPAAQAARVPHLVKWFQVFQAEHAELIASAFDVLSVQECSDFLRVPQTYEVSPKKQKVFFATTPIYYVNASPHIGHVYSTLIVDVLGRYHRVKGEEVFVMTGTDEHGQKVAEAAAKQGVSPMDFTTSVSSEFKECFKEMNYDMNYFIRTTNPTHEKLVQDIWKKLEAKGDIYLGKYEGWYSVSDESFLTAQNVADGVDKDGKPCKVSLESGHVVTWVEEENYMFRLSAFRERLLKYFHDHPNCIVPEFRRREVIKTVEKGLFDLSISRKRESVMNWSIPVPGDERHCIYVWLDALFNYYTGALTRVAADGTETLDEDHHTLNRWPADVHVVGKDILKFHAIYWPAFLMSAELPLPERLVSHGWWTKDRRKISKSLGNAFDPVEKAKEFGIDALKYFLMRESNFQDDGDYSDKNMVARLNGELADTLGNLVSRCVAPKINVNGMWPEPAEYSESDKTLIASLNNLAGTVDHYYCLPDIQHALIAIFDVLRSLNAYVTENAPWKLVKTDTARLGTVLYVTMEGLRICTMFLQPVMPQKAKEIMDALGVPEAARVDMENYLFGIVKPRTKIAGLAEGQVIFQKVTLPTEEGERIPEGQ

LdMetRS: 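Primary screen of methionyl-tRNA synthetase; the read-out is not stated. Target: Methionyl-tRNA synthetase (putative), Leishmania donovani (UniProt E9BF75). The test concentration is not given. The values are filed as inhibition. About 68,000 compounds were tested under these conditions; 0.035% (about 24) showed 50% or more at least once.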
Mtb heat-shock: 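Assay on Mycobacterium tuberculosis, filed only as a heat shock assay from Cornell; the read-out is not stated. The concentration is filed as 10 mM, unlikely as a test dose, so the dose is not known. Higher reads as stronger inhibition (inferred: compounds with an IC50 in retests scored well above the rest). Size under these conditions: about 69,000 compounds, about 930 of them at 50% or above in at least one test.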

Results are percentages, as filed.
The record does not define 0% and 100%; most values in the screen are far below 50% and negative numbers occur (in some assays of this library far below -100).
The compounds are a random part of those screened.
A dash means the value is not listed here; it may have been measured.

Compound | LdMetRS | Mtb heat-shock
O=S(=O)(NCc1ccccc1Cn1cncn1)N1CCCCCC1 | 15.95 | -6.6
O=C(NCCN1CCOCC1)NCc1cccnc1-n1cccn1 | -1.985 | 18.05
[H][C@]12CC[C@](O)(c3ccc(C)cc3)[C@@]1([H])CN(S(=O)(=O)C(C)C)C2 | - | -4.946
CC(C)n1ccnc1CN1CCOC(CC2CCCCC2)C1 (centres undefined) | -3.093 | 50.37
CN(C)CC1(O)CCN(S(=O)(=O)c2cccc(F)c2)C1 (centres undefined) | 14.69 | -16.96
c1ccc(N2CCC3(CCCN(c4ncccn4)C3)C2)nc1 (centres undefined) | 20.25 | -
CC(C)NC(=O)c1nc(Cn2c(C(F)(F)F)nc3ccccc32)no1 | 3.175 | 6.351
Cn1ncc(CN2CCc3onc(-c4cccc(F)c4)c3C2)c1C1CC1 | 13.3 | 34.95
Cc1nc(CN2CCCC2Cn2cncn2)no1 (centres undefined) | 10.93 | -21.89
[H][C@@]12CS(=O)(=O)C[C@]1([H])N(C(=O)c1ccc(COC)o1)CCN2CC=C(C)C | - | -19.42
COc1cccc(CNCc2c(C(C)C)nn(C)c2N(C)C)c1OC | 10.2 | 25.27
[H][C@@]12C[C@@H](O)CN1C[C@H](Cc1ccccc1)N(Cc1cnc(CC)nc1)C2 | - | 12.89
COc1cc(C(=O)Nc2nc(C)no2)cc(Cl)c1OC | 21.13 | 101
COc1cccc(CN2CCCCCC2c2sccc2C)c1O (centres undefined) | 12.96 | 19.97
CNc1nc(N2C[C@H](NC(=O)CCOC)[C@@H](C3CC3)C2)nc2c1CCC2 | 8.383 | -3.598
Cc1cnn(CC2CCCN2C(=O)c2ccc(F)c(F)c2)c1 (centres undefined) | 14.75 | -8.245
O=C(NCCn1nc(-n2cncn2)ccc1=O)c1ccc(F)cc1F | 16.53 | -5.03
CCN(CC)Cc1cnc2n1CCN(Cc1c(C)noc1C)CC2 | 4.712 | -
Cc1nccn1C1CCCN(C(=O)c2ccc3c(c2)COC3)C1 (centres undefined) | 13.02 | -5.159
COc1ccccc1CN1C(=O)O[C@@H]2CN(CC3CC3)C[C@@H]21 | 9.091 | -
Cc1cc(C)c2nc(CN3CCC(C#N)CC3)cc(O)c2c1 | 14.29 | 15.23
CC(=O)NCC(=O)N1CCOC(c2cccc(N)n2)C1 (centres undefined) | 1.575 | -13.16
COCc1c(C(=O)N2CCCC(N(C)Cc3ccccc3)C2)noc1C (centres undefined) | 12.32 | 4.704
CCN1CCN(CCCNC(=O)c2cc3ccc(C)cc3nc2C)CC1 | 5.08 | -11.33
O=C(NCC1(N2CCOCC2)CCSC1)Nc1cn[nH]c1 (centres undefined) | 8.152 | -21.5
O=C(C1CCCC1)N1CCCC(c2nc(O)cc(-c3ccncc3)n2)C1 (centres undefined) | 14.06 | -3.036
CN(Cc1nccn1CC(F)(F)F)C(=O)c1ccc(F)c(F)c1 | 12.68 | 9.991
Cc1cc(CN(C)S(=O)(=O)N2CCCC2c2ccc(C)o2)no1 (centres undefined) | 8.908 | -11.17
CC(NC(=O)C1CCN(S(N)(=O)=O)CC1)c1cccc(OC(F)F)c1 (centres undefined) | -0.8065 | 3.658
N#Cc1ccc(S(=O)(=O)NC(=O)c2ccc3c(c2)COC3)cc1 | 3.665 | -31.56
Cc1noc(C)c1CN1CCO[C@H]2[C@H](Oc3ncccc3F)CC[C@@H]21 | 14.7 | -
CC(C)(C)n1cc(C(=O)N2CCCN(Cc3cccs3)CC2)cn1 | 19.39 | 16.13
CCCn1[nH]cc/c1=N\C(=O)CN1CCCC1Cn1cccn1 (centres undefined) | 6.774 | -0.9452
[H][C@]12CCC(=O)N(C)[C@@]1(C)CCCCN2C(=O)CCn1nccc1C | - | -9.064
CNC(=O)c1cccc(CN2CCC(N(C)Cc3noc(C)n3)C2)c1 (centres undefined) | -3.297 | -17.43
Cl.Cl.O=C(NCc1cncc2c1CCN(Cc1ccoc1)C2)C1CC1 | - | -46.29
Cc1ccccc1CNC(Cn1cncn1)c1ccccc1 (centres undefined) | 10.92 | -8.111
CCn1nc(C)c(CCNC(=O)C2CCCN(C(N)=O)C2)c1C (centres undefined) | 4.087 | -40.18
Cc1cc(-c2nn(C)c(Cl)c2CN2CCC3(CC2)[C@H](O)C[C@@H]3O)no1 | 9.89 | 12.41
CCN1CCc2cc(C(=O)N(C)C)c(NCC3CC3)nc2CC1 | 18.78 | -34.74
Clc1ccccc1Cc1noc(CN2CCCC(CN3CCCC3)C2)n1 (centres undefined) | 23.71 | 7.929

3 of the entries, repeated:

{"compound": "[H][C@@]12CS(=O)(=O)C[C@]1([H])N(C(=O)c1ccc(COC)o1)CCN2CC=C(C)C", "Mtb heat-shock": -19.42}
{"compound": "[H][C@]12CC[C@](O)(c3ccc(C)cc3)[C@@]1([H])CN(S(=O)(=O)C(C)C)C2", "Mtb heat-shock": -4.946}
{"compound": "Cc1cc(C)c2nc(CN3CCC(C#N)CC3)cc(O)c2c1", "LdMetRS": 14.29, "Mtb heat-shock": 15.23}

The values are deposited in ChEMBL (CHEMBL3988442, “University of Dundee, Small-Polar-MMV Screening Library” (2021)).